This is one part of the list.

Sequences of proteins named here, by UniProt entry; tags and fusion partners are left off. A change or cut given only in a name is not applied to a line headed by its entry.
UniProt O76094: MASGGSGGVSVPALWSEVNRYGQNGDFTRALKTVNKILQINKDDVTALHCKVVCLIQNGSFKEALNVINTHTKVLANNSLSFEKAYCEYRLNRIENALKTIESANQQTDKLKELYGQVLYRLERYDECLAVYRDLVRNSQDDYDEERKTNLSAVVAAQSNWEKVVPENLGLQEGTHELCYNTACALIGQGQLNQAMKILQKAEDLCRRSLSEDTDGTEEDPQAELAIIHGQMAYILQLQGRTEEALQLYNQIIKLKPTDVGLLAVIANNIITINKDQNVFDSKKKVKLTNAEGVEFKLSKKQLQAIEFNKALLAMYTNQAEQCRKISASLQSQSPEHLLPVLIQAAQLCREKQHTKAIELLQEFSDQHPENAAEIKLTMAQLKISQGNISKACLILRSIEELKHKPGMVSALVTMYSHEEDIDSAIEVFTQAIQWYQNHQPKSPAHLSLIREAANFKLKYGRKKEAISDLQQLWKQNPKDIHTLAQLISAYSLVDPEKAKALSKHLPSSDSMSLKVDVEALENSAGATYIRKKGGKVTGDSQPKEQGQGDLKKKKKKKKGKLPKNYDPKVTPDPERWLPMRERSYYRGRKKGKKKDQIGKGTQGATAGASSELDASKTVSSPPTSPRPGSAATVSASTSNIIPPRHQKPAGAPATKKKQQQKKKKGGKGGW
UniProt Q9UBP0: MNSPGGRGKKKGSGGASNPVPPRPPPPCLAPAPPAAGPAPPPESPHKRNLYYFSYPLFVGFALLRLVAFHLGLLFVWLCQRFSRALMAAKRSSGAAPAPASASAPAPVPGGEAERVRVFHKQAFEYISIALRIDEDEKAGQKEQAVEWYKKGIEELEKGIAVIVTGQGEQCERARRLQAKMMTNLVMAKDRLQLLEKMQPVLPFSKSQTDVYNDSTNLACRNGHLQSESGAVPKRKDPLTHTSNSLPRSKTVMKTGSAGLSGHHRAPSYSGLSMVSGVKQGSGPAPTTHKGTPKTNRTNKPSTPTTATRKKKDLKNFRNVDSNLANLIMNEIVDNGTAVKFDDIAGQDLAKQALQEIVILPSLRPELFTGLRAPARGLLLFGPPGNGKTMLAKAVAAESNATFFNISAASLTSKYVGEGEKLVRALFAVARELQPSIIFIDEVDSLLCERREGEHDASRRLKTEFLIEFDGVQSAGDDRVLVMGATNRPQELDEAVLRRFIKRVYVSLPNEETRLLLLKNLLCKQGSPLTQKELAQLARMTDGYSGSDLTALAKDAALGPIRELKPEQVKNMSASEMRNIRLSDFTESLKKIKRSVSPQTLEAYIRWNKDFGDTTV
UniProt P43307: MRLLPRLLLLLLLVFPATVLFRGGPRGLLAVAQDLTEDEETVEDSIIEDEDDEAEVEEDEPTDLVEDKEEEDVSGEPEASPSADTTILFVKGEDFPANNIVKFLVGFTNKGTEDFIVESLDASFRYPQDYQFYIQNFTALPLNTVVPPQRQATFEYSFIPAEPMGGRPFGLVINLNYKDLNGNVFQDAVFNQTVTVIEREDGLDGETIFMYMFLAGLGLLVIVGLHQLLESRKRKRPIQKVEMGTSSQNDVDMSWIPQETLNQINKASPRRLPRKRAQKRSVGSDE
UniProt Q9NP77: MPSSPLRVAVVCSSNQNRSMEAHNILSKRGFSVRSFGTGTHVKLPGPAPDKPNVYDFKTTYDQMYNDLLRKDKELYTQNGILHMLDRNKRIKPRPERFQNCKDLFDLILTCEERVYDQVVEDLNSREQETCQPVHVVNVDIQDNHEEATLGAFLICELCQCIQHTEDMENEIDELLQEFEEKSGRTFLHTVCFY
UniProt O15020, whole entry, looked up: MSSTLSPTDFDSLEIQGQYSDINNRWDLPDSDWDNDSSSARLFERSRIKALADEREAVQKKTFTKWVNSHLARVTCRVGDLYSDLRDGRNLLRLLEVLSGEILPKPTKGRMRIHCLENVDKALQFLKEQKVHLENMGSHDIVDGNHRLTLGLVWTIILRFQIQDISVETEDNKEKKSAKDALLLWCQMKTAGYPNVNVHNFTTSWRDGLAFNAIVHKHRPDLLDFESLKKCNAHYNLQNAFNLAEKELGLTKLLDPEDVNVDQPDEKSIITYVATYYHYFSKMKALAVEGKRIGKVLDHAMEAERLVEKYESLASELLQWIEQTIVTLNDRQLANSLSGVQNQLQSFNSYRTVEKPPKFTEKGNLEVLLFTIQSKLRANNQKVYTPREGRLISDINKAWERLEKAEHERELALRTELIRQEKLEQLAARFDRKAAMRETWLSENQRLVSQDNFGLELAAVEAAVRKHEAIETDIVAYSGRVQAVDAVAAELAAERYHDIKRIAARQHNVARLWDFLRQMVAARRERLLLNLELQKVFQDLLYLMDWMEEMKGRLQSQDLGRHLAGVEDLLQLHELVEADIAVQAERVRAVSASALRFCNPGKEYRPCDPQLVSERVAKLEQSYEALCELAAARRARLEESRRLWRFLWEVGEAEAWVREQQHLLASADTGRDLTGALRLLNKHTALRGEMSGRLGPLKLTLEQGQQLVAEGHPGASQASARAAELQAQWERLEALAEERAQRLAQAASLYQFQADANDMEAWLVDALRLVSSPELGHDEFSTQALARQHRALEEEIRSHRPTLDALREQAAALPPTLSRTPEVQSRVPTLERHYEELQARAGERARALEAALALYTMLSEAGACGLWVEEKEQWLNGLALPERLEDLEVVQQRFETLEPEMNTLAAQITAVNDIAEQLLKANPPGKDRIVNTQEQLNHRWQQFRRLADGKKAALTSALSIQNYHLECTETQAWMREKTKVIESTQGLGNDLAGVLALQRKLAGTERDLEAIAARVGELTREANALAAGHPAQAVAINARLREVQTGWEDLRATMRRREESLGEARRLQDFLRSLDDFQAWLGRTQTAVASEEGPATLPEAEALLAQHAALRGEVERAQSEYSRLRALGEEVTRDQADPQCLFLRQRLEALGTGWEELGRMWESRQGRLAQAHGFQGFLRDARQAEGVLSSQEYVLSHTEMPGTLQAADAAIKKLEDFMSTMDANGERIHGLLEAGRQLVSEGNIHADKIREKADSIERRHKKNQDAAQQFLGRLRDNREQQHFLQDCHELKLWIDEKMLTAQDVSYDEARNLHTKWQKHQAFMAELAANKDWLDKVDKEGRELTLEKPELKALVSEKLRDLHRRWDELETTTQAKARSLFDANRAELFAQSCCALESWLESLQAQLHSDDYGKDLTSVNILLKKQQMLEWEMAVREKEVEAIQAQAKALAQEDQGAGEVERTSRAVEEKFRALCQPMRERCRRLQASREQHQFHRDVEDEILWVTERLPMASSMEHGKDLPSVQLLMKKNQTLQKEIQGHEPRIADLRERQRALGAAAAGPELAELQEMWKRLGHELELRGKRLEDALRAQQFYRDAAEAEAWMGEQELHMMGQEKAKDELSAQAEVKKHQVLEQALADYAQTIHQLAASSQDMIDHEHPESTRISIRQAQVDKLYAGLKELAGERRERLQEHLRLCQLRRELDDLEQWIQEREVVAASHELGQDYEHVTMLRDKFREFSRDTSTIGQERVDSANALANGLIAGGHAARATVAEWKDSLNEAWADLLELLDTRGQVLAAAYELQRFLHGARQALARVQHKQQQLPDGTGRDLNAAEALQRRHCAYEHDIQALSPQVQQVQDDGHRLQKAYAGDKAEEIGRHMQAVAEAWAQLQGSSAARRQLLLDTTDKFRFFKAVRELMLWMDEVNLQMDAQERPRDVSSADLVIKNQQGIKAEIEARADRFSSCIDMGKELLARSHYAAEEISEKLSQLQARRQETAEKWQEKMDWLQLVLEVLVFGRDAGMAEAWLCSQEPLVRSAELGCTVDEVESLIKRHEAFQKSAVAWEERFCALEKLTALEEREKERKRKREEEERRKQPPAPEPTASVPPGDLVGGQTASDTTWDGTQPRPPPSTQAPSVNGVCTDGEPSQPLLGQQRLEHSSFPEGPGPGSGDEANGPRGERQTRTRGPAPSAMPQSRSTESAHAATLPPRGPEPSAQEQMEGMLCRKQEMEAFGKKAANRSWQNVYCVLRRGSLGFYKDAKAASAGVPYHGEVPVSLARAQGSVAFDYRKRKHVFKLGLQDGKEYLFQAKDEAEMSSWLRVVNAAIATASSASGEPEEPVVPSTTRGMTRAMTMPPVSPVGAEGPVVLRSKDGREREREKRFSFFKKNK
UniProt O95793: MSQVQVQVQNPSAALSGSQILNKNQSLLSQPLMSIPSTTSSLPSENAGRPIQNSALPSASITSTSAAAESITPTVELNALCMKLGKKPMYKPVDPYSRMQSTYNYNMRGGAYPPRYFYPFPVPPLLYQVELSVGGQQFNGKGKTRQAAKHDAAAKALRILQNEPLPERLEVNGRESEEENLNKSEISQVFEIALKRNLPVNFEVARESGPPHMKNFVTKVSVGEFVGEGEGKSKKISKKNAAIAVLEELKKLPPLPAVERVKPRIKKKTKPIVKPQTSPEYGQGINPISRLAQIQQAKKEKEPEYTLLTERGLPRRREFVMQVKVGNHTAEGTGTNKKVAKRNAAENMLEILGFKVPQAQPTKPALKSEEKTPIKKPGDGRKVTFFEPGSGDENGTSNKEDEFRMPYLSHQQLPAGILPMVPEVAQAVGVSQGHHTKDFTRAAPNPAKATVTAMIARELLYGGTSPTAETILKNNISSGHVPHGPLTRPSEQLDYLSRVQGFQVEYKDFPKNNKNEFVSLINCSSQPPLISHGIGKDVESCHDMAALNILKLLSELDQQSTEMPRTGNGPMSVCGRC
UniProt Q08AE8, whole entry, looked up: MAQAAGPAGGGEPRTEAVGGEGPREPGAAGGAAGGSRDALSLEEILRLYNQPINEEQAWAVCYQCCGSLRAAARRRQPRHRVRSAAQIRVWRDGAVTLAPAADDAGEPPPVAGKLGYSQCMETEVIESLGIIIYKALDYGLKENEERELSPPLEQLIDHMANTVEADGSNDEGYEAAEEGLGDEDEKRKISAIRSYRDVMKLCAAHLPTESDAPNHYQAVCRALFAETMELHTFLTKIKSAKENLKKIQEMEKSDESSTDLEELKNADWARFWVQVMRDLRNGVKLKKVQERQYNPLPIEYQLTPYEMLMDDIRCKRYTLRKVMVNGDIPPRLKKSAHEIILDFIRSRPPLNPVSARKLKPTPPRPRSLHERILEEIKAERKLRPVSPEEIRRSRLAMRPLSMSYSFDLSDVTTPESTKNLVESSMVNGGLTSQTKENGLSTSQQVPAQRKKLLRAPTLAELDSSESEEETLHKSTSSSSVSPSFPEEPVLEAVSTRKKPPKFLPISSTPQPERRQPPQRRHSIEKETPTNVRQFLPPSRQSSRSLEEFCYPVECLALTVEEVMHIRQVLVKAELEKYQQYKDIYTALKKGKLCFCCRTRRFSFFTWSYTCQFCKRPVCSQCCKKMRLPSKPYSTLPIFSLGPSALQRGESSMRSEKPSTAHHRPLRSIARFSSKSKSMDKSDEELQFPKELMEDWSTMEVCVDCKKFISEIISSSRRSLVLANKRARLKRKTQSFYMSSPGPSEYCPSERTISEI
UniProt Q8NB90: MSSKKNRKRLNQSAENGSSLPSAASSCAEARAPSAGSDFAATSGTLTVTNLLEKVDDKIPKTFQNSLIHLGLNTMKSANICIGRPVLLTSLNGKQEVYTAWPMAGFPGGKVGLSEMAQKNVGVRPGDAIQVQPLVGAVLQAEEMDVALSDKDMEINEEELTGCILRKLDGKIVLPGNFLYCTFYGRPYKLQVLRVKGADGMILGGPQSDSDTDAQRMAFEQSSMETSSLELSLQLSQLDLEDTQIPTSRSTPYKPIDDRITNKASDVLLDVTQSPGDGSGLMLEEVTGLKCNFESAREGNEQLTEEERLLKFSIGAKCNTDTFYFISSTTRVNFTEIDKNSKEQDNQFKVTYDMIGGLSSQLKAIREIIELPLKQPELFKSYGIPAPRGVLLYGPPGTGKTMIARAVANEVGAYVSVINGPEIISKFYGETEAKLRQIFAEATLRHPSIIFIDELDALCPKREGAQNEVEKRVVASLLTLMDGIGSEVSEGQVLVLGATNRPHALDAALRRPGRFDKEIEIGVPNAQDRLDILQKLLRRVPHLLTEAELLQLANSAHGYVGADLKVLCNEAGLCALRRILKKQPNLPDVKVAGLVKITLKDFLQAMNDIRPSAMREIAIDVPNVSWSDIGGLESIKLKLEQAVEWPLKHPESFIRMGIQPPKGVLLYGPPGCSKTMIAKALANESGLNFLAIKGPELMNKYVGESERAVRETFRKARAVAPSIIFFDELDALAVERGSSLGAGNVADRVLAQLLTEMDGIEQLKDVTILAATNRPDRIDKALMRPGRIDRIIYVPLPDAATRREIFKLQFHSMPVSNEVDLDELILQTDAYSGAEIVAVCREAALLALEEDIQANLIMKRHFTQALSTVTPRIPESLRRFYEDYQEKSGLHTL
UniProt P61009: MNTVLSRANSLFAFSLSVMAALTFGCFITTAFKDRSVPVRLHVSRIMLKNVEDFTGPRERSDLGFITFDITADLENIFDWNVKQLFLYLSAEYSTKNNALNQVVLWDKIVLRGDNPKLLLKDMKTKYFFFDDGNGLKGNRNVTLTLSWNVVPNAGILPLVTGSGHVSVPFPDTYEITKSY

Compound in the first assay: C[C@H](C1=CC=C(C=C1)C(=O)NC2=C3C=CNC3=NC=C2)N
The assay can be described thus: log2 fold change, soluble protein after heating vs DMSO (PISA); higher = thermal stabilisation; K562 lysate, 10 uM; active = over 0.2 and 3.5 SD of the protein, either way, in both replicates (recomputed). In outline: (§1)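 Log-two fold change in thermal stability relative to solvent controls is reported from duplicates. For each sample, crude K562 extract from dounce-homogenised pellets in PBS pH 7.4 with 1 mM MgCl2, at 1 mg/mL protein, was treated with 10 μM compound for 30 min. Aliquots heated for 3 min across 48°C-58°C were pooled, brought to 0.5% NP-40 at 4°C and cleared at 21,000xg for 90 min. The supernatant was quantified by TMTpro 16plex LC-MS/MS with channel sums equalised.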
SRP72 (UniProt O76094): the log2 fold change is inactive: 0.001. For the target SPAST (UniProt Q9UBP0), the log2 fold change was inactive: 0.011. For the target SPG21 (UniProt Q9NZD8), the log2 fold change was inactive: -0.03.

As for SRRM2 (UniProt Q9UQ35), the log2 fold change is inactive: -0.104. With SRR (UniProt Q9GZT4), the log2 fold change is inactive: 0.03. Still for that read-out and setting: for SPECC1L (UniProt Q69YQ0) the value was inactive: -0.091; for SSR1 (UniProt P43307), inactive: -0.049; for SRF (UniProt P11831), inactive: 0.129.

Compound in another assay: C[C@H](Nc1ncnc2nc[nH]c12)c1cc2cccc(Cl)c2c(=O)n1-c1ccccc1 [duvelisib]
Described as above. In outline: as §1
Regarding SREBF2 (UniProt Q12772), the log2 fold change was inactive: 0.122. On the same count and under the same terms, the result for SPDL1 (UniProt Q96EA4) reads inactive: 0.006; that for SSU72 (UniProt Q9NP77), inactive: -0.004. The same measure, in the same setting: the result for SRPK1 (UniProt Q96SB4) reads inactive: 0.025; that for STAMBP (UniProt O95630), inactive: -0.007; that for SPTLC2 (UniProt O15270), inactive: 0.041. Same read-out and setting: for SRSF4 (UniProt Q08170) the value was inactive: 0.014; for SRSF1 (UniProt Q07955), inactive: 0.01; for SRSF6 (UniProt Q13247), inactive: 0.093. Consider SPTBN2 (UniProt O15020), for which the log2 fold change was inactive: -0.017. For SPATA5L1 (UniProt Q9BVQ7), the log2 fold change is inactive: 0.001. As for STAU1 (UniProt O95793), the log2 fold change was inactive: 0.019. On the same count and under the same terms, the result for SPIRE1 (UniProt Q08AE8) reads inactive: -0.021; that for SPR (UniProt P35270), inactive: -0.059. Same read-out and setting: for SPATS2 (UniProt Q86XZ4) the value was inactive: 0.048; for SPATA5 (UniProt Q8NB90), inactive: -0.015. For SRP68 (UniProt Q9UHB9), the log2 fold change is inactive: -0.027.

Take SPCS3 (UniProt P61009): the log2 fold change is inactive: -0.019.

Regarding SPRYD4 (UniProt Q8WW59), the log2 fold change was inactive: -0.009. For SSBP1 (UniProt Q04837), the log2 fold change was inactive: -0.01. On the same count and under the same terms, the result for SRBD1 (UniProt Q8N5C6) reads inactive: -0.006; that for ST3GAL2 (UniProt Q16842), inactive: -0.056; that for SRCAP (UniProt Q6ZRS2), inactive: -0.017. On the same count and under the same terms, for SSNA1 (UniProt O43805) the value was inactive: -0.038; for SRP72 (UniProt O76094), inactive: -0.008. The same measure, in the same setting: the result for SPAST (UniProt Q9UBP0) reads inactive: -0.017. Take SPG21 (UniProt Q9NZD8): the log2 fold change is inactive: -0.018. Regarding SRRM2 (UniProt Q9UQ35), the log2 fold change is inactive: 0.022.

SRR (UniProt Q9GZT4): the log2 fold change is inactive: -0.043. For the target SPECC1L (UniProt Q69YQ0), the log2 fold change was inactive: -0.012. As to SSR1 (UniProt P43307), the log2 fold change was inactive: 0.014. For SRF (UniProt P11831), the log2 fold change is inactive: 0.042.

The values above are taken from the supplement of paper PMC10849652.
